Reference: PubChem BioAssay AID1671190 (National Center for Advancing Translational Sciences (NCATS), 2021)
The campaign covered roughly 580,000 compounds. About 6,100 (1.1%) were called active. The inconclusive results got no clear call from the source; some entries with a clear call stand among them for comparison. Calls come from the whole dose curve; as a rule, active = well fitted inhibition curve with a large enough effect; inconclusive = small, poorly fitted or top-dose-only effect, or another doubt; inactive = no such curve, though single readings can be large or run the other way. Potencies of inconclusive entries are doubtful fits and often do not repeat.

Protein sequences, listed by entry. Tags and fused reporters are not part of them. Lines headed by an entry give the natural chain unless they say otherwise; changes in a name come on top.
UniProt P18054: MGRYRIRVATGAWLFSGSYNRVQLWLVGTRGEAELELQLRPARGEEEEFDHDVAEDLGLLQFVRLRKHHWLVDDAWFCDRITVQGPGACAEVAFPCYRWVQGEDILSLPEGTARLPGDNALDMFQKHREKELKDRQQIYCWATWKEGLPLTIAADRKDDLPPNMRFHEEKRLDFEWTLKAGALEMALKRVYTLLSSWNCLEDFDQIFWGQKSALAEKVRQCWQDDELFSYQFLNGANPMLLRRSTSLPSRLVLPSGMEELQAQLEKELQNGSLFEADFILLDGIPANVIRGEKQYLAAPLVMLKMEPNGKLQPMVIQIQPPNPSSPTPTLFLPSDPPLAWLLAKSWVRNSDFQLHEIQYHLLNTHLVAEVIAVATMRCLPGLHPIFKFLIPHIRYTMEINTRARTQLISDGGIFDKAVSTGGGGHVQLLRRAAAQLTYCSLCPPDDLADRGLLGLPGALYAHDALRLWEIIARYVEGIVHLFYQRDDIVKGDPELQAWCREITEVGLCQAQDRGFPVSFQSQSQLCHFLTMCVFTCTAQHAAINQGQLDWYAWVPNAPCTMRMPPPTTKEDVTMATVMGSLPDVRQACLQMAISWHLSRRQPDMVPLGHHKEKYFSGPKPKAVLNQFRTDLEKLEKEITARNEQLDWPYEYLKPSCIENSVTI

Each compound was assayed against Polyunsaturated fatty acid lipoxygenase ALOX12 (Homo sapiens) (UniProt P18054) (assay: Primary qHTS assay for inhibitors of human arachidonate 12S-lipoxygenase (ALOX12): Round 2). Conditions: purified 12hLO, xylenol orange hydroperoxide absorbance; series mostly up to 108 µM.
Method in brief: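 Hydroperoxide product was detected by ferrous iron/xylenol orange as the 573 to 405 nm absorbance ratio. Arachidonic acid at 40 uM (final) was turned over for 30 min at room temperature by 150 nM human 12hLO, pH 7.0 Hepes buffer, after 15 min compound preincubation.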
Potency is the fitted concentration of half-maximal effect.

**Q.** With `CCN1CCN(C(=S)NCCOC)CC1` as the compound, how does the Potency read?
**A.** Its Potency is “inactive”.

**Q.** With `Cc1ccc(Nc2nc(-c3ccc(S(=O)(=O)N4CCCCC4)cc3)cs2)cc1C` as the compound, how does the Potency read?
**A.** The Potency was inconclusive: 5.01 µM [inhibitor, full curve, poor fit].

**Q.** `CC1=C[C@@H](CNS(=O)(=O)c2ccc(Cl)cc2)[C@H](C(C)C)C[C@H]1CC(=O)N1CCOCC1` was tested. Which Potency did it give?
**A.** The Potency was inconclusive: 50.1 µM [inhibitor, partial curve, poor fit].

**Q.** How did the Potency turn out when `Cn1nccc1-c1ccc2ncn(Cc3ccccc3)c(=O)c2n1` was run?
**A.** Its Potency is “inactive”.

**Q.** For `Cc1ccccc1CSc1nnc(-c2ccco2)n1Cc1ccco1`, which Potency is on record?
**A.** The Potency was inconclusive: 44.7 µM [inhibitor, partial curve, poor fit].

**Q.** `O=C(N/N=C/c1ccoc1)c1ccccc1` was tested. Which Potency did it give?
**A.** Its Potency is “inactive”.

**Q.** Which Potency does the source give for `COC(=O)c1cc(NC(=O)c2cnc(SC)nc2-c2ccccc2)cc(C(=O)OC)c1` here?
**A.** The Potency was inconclusive: 3.55 µM [inhibitor, full curve, poor fit].

**Q.** Which Potency does the source give for `Cc1[nH]c(-c2ccco2)nc1C(=O)O` here?
**A.** The Potency was inconclusive: 1.12 µM [inhibitor, full curve, poor fit].

**Q.** `CN(C)c1nc2ccccc2c(N)c1-c1ccccc1` was tested. Which Potency did it give?
**A.** Its Potency is inconclusive: 0.398 µM [inhibitor, full curve, poor fit].

**Q.** For `COc1ccc(-n2nc3c(c2NC(=O)c2c(F)cccc2Cl)CS(=O)C3)cc1` (stereo not given), which Potency is on record?
**A.** The Potency was “inactive”.

**Q.** Which Potency does the source give for `COc1cc(CN2CCNC(=O)C2CC(=O)NCCC2=CCCCC2)cc(OC)c1` (stereo not given) here?
**A.** The Potency was “inactive”.

**Q.** Which Potency does the source give for `N#CC1=C(N)OC2=C(C(=O)CCC2)C1c1ccsc1` (stereo not given) here?
**A.** The Potency was inconclusive: 63.1 µM [inhibitor, partial curve, poor fit].

**Q.** `O=C(OCCC12CC3CC(CC(C3)C1)C2)c1ccc(NCc2cc(O)ccc2O)cc1` was tested. Which Potency did it give?
**A.** Its Potency is active: 5.62 µM.

**Q.** `CCCCc1nn2c(N)c(/C=C3\C=Nc4ccccc43)c(=O)nc2s1` was tested. Which Potency did it give?
**A.** The Potency was inconclusive: 10 µM [inhibitor, full curve, poor fit].

**Q.** Which Potency does the source give for `O=C(Oc1ccc(OCc2ccccc2)cc1)c1cnc2ccccc2n1` here?
**A.** The Potency was inconclusive: 44.7 µM [inhibitor, partial curve, poor fit].

**Q.** How did the Potency turn out when `COc1ccc(S(=O)(=O)N(C(=O)c2ccco2)c2cc3sc(=O)oc3c3ccccc23)cc1` was run?
**A.** Its Potency is inconclusive: 17.8 µM [inhibitor, full curve, poor fit].

**Q.** `CC(NC(=O)CSc1nc2cc([N+](=O)[O-])ccc2o1)c1ccc(F)cc1F` (stereo not given) was tested. Which Potency did it give?
**A.** Its Potency is inconclusive: 112 µM [inhibitor, single point].

**Q.** How did the Potency turn out when `COc1cccc(-c2ccc3ncnc(NCc4cc(C)cs4)c3c2)c1` was run?
**A.** The Potency was inconclusive: 44.7 µM [inhibitor, partial curve, poor fit].

**Q.** How did the Potency turn out when `CCOc1ccccc1N(CC(=O)NCCSc1ccccn1)S(=O)(=O)c1ccc(C)cc1` was run?
**A.** Its Potency is inconclusive: 112 µM [inhibitor, partial curve, poor fit].

**Q.** How did the Potency turn out when `Cn1cnc(C(=O)N2CCc3ccccc3C2)c1C(=O)N1CCc2ccccc2C1` was run?
**A.** Its Potency is inconclusive: 35.5 µM [inhibitor, partial curve, poor fit].

**Q.** For `Cc1ccc(Cl)cc1N1CCN(C(=S)NCCc2ccccc2)CC1`, which Potency is on record?
**A.** The Potency was active: 35.5 µM.

**Q.** Which Potency does the source give for `Cc1ccc(CNC(=O)COCc2cc(-c3ccc4c(c3)OCO4)on2)cc1` here?
**A.** Its Potency is “inactive”.

**Q.** How did the Potency turn out when `COc1ccc(-c2sc(Nc3ccccc3)n[n+]2-c2ccc(F)cc2)c(C)c1C` was run?
**A.** The Potency was inconclusive: 50.1 µM [inhibitor, partial curve, poor fit].

**Q.** `CC(C)Cc1csc(=S)[nH]1` was tested. Which Potency did it give?
**A.** Its Potency is inconclusive: 50.1 µM [inhibitor, partial curve, poor fit].

**Q.** Which Potency does the source give for `Cc1ccc(-c2cnc(NCc3ccc(C(C)C)cc3)n2C)cc1` here?
**A.** Its Potency is inconclusive: 0.708 µM [inhibitor, full curve, poor fit].

**Q.** With `O=C1NCc2ccccc2CC12CCCN(Cc1ccnc3ccccc13)C2` (stereo not given) as the compound, how does the Potency read?
**A.** The Potency was active: 22.4 µM.

**Q.** With `Cn1c2c(c(=O)[nH]c1=O)C(c1ccc(C(=O)O)cc1)C1=C(N2)c2ccccc2C1=O` (stereo not given) as the compound, how does the Potency read?
**A.** The Potency was active: 44.7 µM.

**Q.** Which Potency does the source give for `CC(C)NC(=O)NC(=O)CN1CCCc2c(C(=O)NC(C)C)cccc21` here?
**A.** Its Potency is inconclusive: 56.2 µM [inhibitor, single point].

**Q.** Which Potency does the source give for `O=c1cc(N2CCCCC2)c(-c2ccccc2)nn1Cc1ccc(Cl)cc1Cl` here?
**A.** Its Potency is inconclusive: 20 µM [inhibitor, partial curve, poor fit].

**Q.** How did the Potency turn out when `Cn1c(=O)n(Cc2ccccc2)c(=O)c2c1nc(NCC1CCCO1)n2Cc1ccccc1` (stereo not given) was run?
**A.** The Potency was “inactive”.

**Q.** How did the Potency turn out when `CCOc1ccccc1NC(=O)CSc1nnc(Cc2cccn2C)n1-c1ccc(F)cc1` was run?
**A.** The Potency was “inactive”.

**Q.** For `C[C@@H]1CN([C@H](C)CO)S(=O)(=O)c2ccc(Br)cc2O[C@H]1CN(C)C(=O)Cc1ccccn1`, which Potency is on record?
**A.** The Potency was inconclusive: 5.62 µM [inhibitor, full curve, poor fit].

**Q.** How did the Potency turn out when `O=c1/c(=C/c2ccco2)sc2n1CN(c1cccc(Br)c1)CN=2` was run?
**A.** Its Potency is “inactive”.

**Q.** Which Potency does the source give for `CCOC(=O)C(NC(=O)c1ccccc1Cl)(Nc1sc2c(c1C(N)=O)CCC2)C(F)(F)F` (stereo not given) here?
**A.** The Potency was inconclusive: 31.6 µM [inhibitor, partial curve, poor fit].

**Q.** `O=C(c1cccc(F)c1)N1CCC(N2CCOCC2)CC1` was tested. Which Potency did it give?
**A.** The Potency was inconclusive: 0.501 µM [inhibitor, full curve, poor fit].

**Q.** `Cc1ccc(NC(=O)COC(=O)C2CC(=O)N(Cc3ccccc3)C2)cc1S(=O)(=O)N(C)C` (stereo not given) was tested. Which Potency did it give?
**A.** The Potency was inconclusive: 44.7 µM [inhibitor, partial curve, poor fit].

**Q.** With `c1ccc(N/N=C(\Cc2ncc[nH]2)c2ccccc2)cc1` as the compound, how does the Potency read?
**A.** Its Potency is inconclusive: 100 µM [inhibitor, partial curve, poor fit].

**Q.** With `O=C(c1ccccc1Cl)c1c(O)c2ccccc2oc1=O` as the compound, how does the Potency read?
**A.** Its Potency is inconclusive: 100 µM [inhibitor, partial curve, poor fit].

**Q.** `O=C(CN1CCN(S(=O)(=O)c2cc(Cl)ccc2Cl)CC1)Nc1ccc2c(c1)OCCO2` was tested. Which Potency did it give?
**A.** Its Potency is inconclusive: 39.8 µM [inhibitor, partial curve, poor fit].

**Q.** `Cc1ccc(CN(C(=O)c2ccco2)c2nc3nc(C)c(Cc4ccccc4)c(=O)n3[nH]2)cc1` was tested. Which Potency did it give?
**A.** The Potency was inconclusive: 35.5 µM [inhibitor, partial curve, poor fit].

**Q.** Which Potency does the source give for `COc1ccc2cc(C#CC3=CC(=O)C[C@H](c4ccc(F)cc4)C3)ccc2c1` here?
**A.** The Potency was inconclusive: 35.5 µM [inhibitor, partial curve, poor fit].

**Q.** `CC(C)NC(=O)c1cnc2sc(N3CCCCCC3)nn2c1=O` was tested. Which Potency did it give?
**A.** The Potency was inconclusive: 141 µM [inhibitor, partial curve, poor fit].

**Q.** For `COc1ccc(Br)cc1C1CC(=O)C(C)C(c2cc(Br)ccc2OC)N1` (stereo not given), which Potency is on record?
**A.** The Potency was “inactive”.

**Q.** How did the Potency turn out when `Cc1cc(N2CCOCC2)nc(N2CCN(C(=O)Nc3ccccc3)CC2)n1` was run?
**A.** Its Potency is inconclusive: 112 µM [inhibitor, partial curve, poor fit].

**Q.** With `CCCCC1(C)NC(=S)N2N1C(=S)NC2(C)CCCC` (stereo not given) as the compound, how does the Potency read?
**A.** Its Potency is inconclusive: 17.8 µM [inhibitor, full curve, poor fit].

**Q.** How did the Potency turn out when `CCCN1CCN(CCCNC(=O)c2cc3c(=O)oc4ccc(C)cc4c3s2)CC1` was run?
**A.** The Potency was “inactive”.

**Q.** Which Potency does the source give for `Fc1ccc(-c2cc(C(F)(F)C(F)F)[nH]n2)cc1` here?
**A.** The Potency was inconclusive: 112 µM [inhibitor, single point].

**Q.** With `COC(=O)c1ccc2c(=O)n(CCN3CCOCC3)c(=S)[nH]c2c1` as the compound, how does the Potency read?
**A.** The Potency was inconclusive: 28.2 µM [inhibitor, partial curve, poor fit].

**Q.** Which Potency does the source give for `CCOc1ccc(/C=N/NC(=O)C(=O)N2CCCCCC2)c2ccccc12` here?
**A.** The Potency was “inactive”.

**Q.** With `CCOc1cc(C2CC(=O)N3CN(C4CCCCC4)CSC3=C2C#N)ccc1O` (stereo not given) as the compound, how does the Potency read?
**A.** The Potency was inconclusive: 44.7 µM [inhibitor, partial curve, poor fit].

**Q.** With `CC1(c2ccc(OC(F)F)cc2)NC(=O)N(CC(=O)c2ccc3c(c2)OCO3)C1=O` (stereo not given) as the compound, how does the Potency read?
**A.** The Potency was inconclusive: 63.1 µM [inhibitor, partial curve, poor fit].

**Q.** `CC(C)c1noc([C@@H]2C[C@H]3C(=O)NCCCCCCN(C(=O)CCC4CCCC4)[C@H]3C2)n1` was tested. Which Potency did it give?
**A.** Its Potency is “inactive”.

**Q.** `Cc1c(C2CCN(CCc3ccccc3)CC2)noc1-c1ccc(Cl)cc1` was tested. Which Potency did it give?
**A.** The Potency was inconclusive: 35.5 µM [inhibitor, single point].

**Q.** Which Potency does the source give for `CCOc1ccc(C(C)NC(=S)NCc2ccc(Cl)cc2)cc1` (stereo not given) here?
**A.** The Potency was active: 39.8 µM.

**Q.** With `COC(=O)C1(C(F)(F)F)N=C(N2CCCCC2)Oc2c1c(C)nn2-c1ccccc1` (stereo not given) as the compound, how does the Potency read?
**A.** The Potency was inconclusive: 39.8 µM [inhibitor, partial curve, poor fit].

**Q.** `CCN1CC=C2C(C#N)=C(N)C(C#N)(C#N)C(CCc3ccccc3)C2C1` (stereo not given) was tested. Which Potency did it give?
**A.** The Potency was “inactive”.

**Q.** `O=C(NCc1ccccc1)C1(CC2CC(c3ccccc3)=NO2)CCNCC1` (stereo not given) was tested. Which Potency did it give?
**A.** The Potency was inconclusive: 100 µM [inhibitor, single point].

**Q.** For `Cc1cccc(OCCc2noc(C3CN(C(=O)CCC4CCCC4)C3)n2)c1`, which Potency is on record?
**A.** Its Potency is “inactive”.

**Q.** How did the Potency turn out when `Cc1ccc(C)c(N2CCN(C(=O)C3CCN(Cc4nc(-c5cccc(Cl)c5)oc4C)CC3)CC2)c1` was run?
**A.** Its Potency is inconclusive: 56.2 µM [inhibitor, partial curve, poor fit].

**Q.** With `CCCn1c(=O)c2c(nc(-n3nc(C)c(C)c3C)n2CCOC)n(C)c1=O` as the compound, how does the Potency read?
**A.** Its Potency is “inactive”.

**Q.** How did the Potency turn out when `O=C(O)/C=C\C(=O)Nc1ccccc1C(=O)N1CCC(O)(c2ccc(Cl)cc2)CC1` was run?
**A.** Its Potency is inconclusive: 35.5 µM [inhibitor, partial curve, poor fit].

**Q.** How did the Potency turn out when `O=C(c1cccs1)N(Cc1ccco1)Cc1cc2ccccc2[nH]c1=O` was run?
**A.** The Potency was “inactive”.

**Q.** For `Cc1cc(=O)[nH]c(N/N=C/c2ccc(C)o2)n1`, which Potency is on record?
**A.** Its Potency is “inactive”.

**Q.** With `COc1ccc(C(=O)c2c3ccccc3[n+]([O-])n2Cc2ccc(C(N)=O)cc2)cc1` as the compound, how does the Potency read?
**A.** Its Potency is inconclusive: 35.5 µM [inhibitor, partial curve, poor fit].

**Q.** For `Cc1ccc(-c2nc(CS(=O)CC(=O)N(C)C3CCCCC3)cs2)cc1` (stereo not given), which Potency is on record?
**A.** Its Potency is inconclusive: 20 µM [inhibitor, full curve, poor fit].
